No constants are given. Whether binding was seen depends on the method and setting. Binding seen in cells or lysates may run through a third protein. Some results given as binding are weak or reduced against the parent protein; the word gives no strength.

The chains behind the UniProt entries cited, without tags or fusion partners.
UniProt O75340: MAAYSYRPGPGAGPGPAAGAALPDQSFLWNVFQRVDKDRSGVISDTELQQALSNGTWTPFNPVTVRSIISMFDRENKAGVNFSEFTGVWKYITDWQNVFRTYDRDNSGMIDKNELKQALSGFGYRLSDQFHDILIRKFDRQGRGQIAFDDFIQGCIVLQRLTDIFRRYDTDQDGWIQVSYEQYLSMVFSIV

Experiment [1] deals with c-Raf (Raf-1) (human (endogenous in HCT116)) (UniProt P04049). As to the kind of experiment: co-IP; endogenous proteins, HCT116 lysate immunoprecipitated with anti-PDCD6 or anti-c-Raf antibody in the presence of 5 mM EDTA.
The target is the same in experiment [2]. As to the kind of experiment: co-IP; endogenous proteins, HCT116 lysate (50 mM Tris-HCl pH 7.4, 100 mM NaCl, 0.5 mM Ca2+, 0.5% NP-40); IP with anti-PDCD6 or anti-c-Raf antibody, Western blot.
Experiment [3] addresses Programmed cell death protein 6 (PDCD6) (human (endogenous in HCT116)) (UniProt O75340). Nature of the experiment: co-IP; endogenous proteins, HCT116 lysate immunoprecipitated with anti-PDCD6 or anti-c-Raf antibody in the presence of 5 mM EDTA.
For experiment [4] the target is unchanged. Nature of the experiment: co-IP; endogenous proteins, HCT116 lysate (50 mM Tris-HCl pH 7.4, 100 mM NaCl, 0.5 mM Ca2+, 0.5% NP-40); IP with anti-PDCD6 or anti-c-Raf antibody, Western blot. (In western blotting, separated proteins are transferred to a membrane and probed.)

Take “Programmed cell death protein 6 (PDCD6) (from UniProt O75340 1-191)”: the binding result in experiment [1] is “no binding (condition: with 5 mM EDTA)”; in experiment [2] it was “binds”.
As to “c-Raf (Raf-1) (from UniProt P04049 1-648)”, the binding entry in experiment [3] is recorded as “no binding (condition: with 5 mM EDTA)”; in experiment [4], “binds”.

For the origin of these results see publication PMC7398064.
